Reference: article PMC6155330
Results are given in words; binding and its absence hold for the method and conditions named. In cells and extracts the contact can be indirect. Some results given as binding are weak or reduced against the parent protein; the word gives no strength.

Chains of the proteins cited; added tags and fusions are not shown.
UniProt O60566: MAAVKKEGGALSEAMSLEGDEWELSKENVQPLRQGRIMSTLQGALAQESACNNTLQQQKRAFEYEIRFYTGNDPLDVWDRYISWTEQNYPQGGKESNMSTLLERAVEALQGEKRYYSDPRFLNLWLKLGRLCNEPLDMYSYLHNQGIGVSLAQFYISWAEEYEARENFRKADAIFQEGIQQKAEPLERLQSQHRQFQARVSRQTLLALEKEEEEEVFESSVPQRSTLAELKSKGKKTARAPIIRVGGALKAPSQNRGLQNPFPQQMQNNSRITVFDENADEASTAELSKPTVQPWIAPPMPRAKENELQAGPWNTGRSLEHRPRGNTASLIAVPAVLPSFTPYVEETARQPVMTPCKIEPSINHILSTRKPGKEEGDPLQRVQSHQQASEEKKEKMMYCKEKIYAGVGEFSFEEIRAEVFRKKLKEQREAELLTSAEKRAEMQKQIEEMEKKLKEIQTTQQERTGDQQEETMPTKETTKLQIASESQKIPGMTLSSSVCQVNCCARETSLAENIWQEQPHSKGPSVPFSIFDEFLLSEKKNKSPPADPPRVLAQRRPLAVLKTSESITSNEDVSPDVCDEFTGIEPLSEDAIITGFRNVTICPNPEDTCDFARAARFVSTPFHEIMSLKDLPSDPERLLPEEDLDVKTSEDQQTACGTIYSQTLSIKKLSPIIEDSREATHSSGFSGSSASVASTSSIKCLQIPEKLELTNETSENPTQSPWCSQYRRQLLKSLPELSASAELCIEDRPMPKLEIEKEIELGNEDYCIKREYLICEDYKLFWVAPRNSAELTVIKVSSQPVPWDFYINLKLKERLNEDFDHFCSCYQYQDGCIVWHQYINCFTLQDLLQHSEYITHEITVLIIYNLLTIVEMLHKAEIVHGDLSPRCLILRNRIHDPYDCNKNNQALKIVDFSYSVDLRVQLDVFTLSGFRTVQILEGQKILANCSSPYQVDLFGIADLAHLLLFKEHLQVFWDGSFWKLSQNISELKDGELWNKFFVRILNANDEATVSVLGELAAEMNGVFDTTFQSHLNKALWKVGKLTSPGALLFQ
UniProt O43684: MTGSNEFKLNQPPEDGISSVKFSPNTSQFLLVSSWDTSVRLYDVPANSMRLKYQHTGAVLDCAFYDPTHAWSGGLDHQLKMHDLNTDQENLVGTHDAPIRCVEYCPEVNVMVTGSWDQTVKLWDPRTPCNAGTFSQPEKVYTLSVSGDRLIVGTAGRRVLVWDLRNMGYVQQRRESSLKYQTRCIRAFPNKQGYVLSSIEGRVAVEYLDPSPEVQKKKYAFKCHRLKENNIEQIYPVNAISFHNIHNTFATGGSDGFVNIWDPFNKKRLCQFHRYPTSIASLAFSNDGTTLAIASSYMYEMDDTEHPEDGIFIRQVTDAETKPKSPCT

Target: BubR1 (human (endogenous in HeLa)) (UniProt O60566)
Test: co-IP; HeLa cells in 1 uM Taxol for 12 hours, then MG132 with DMSO control or SB415286 (SB), harvested after 2.5 hours; RIPA lysate, 200-300 ug, immunoprecipitated with BubR1 antibody (IgG as control) and protein A-agarose; washed four times with lysis buffer containing 250 mM NaCl; western blot

binding: binds
Substance: Bub3 (from UniProt O43684 1-328)
